Laboratory results as given in patent US6887656B2, “Color photographic element containing improved heterocyclic speed enhancing compound” (Eastman Kodak Company, priority 2003, dated 2005).

Legend:
[1] = Relative speed (light sensitivity) of multilayer film coatings, stepped neutral exposure, C41 process; details: 0.0806 mmol/m^2
Experimental: (§1) Surfactants, coating aids, emulsion addenda (including 4-hydroxy-6-methyl-1,3,3a,7-tetraazaindene), sequestrants, thickeners, lubricants, matte and tinting dyes were added to the appropriate layers as is common in the art.
(§2) Layer 9 (Fast magenta layer): two parts mixed together at a 1:1 ratio just prior to coating;
(§3) Part A (dispersion melt): M-1 at 0.104; DIR-5 at 0.011; ILS-1 at 0.014 and gelatin at 0.420 and Part B (emulsion melt): a green-sensitized (with a mixture of GSD-1 and GSD-2) silver iodobromide tabular emulsion (2.90×0.13 μm, 3.7 mol % iodide) at 1.240; MC-2 at 0.021; DIR-6 at 0.003 and gelatin at 1.076. In some examples as noted, both parts were mixed together and stirred for at least 1 hr before coating.
(§4) All comparative and inventive heterocycles were dispersed in twice their own weight in N,N-dibutyllauramide unless otherwise noted. All parts containing the comparative or inventive heterocycles were stirred at 40 deg C. for at least 1 h before coating.
(§5) For comparative and inventive samples ML-11 to ML-41, 0.0806 mmol/m^2 (except for Compound AD that was at 0.0765 mmol/m^2 and Compound D that was at 0.0749 mmol/m^2) of the comparative or inventive heterocycle was added to either Part A or B of Layer 9 as noted.
(§6) To determine speed these multilayer coatings were given a stepped neutral exposure and processed in the KODAK FLEXICOLOR™ (C41) process as described in British Journal of Photography Annual, 1988, pp 196-198. Relative speed or light sensitivity (given in terms of fraction of a stop) was determined by comparing the exposure point +0.15 green density units above green Dmin to the check position without any heterocycle. A larger, more positive number means increased speed; a negative number means a loss in speed. To determine interimage, these multilayer coatings were given a stepped exposure in the red record while the green and blue layers were simultaneously given an uniform, nonimagewise flash exposure so that the green density (GminR) where there was no red record development (minimum red exposure point) was close to 1.0. Then, a red exposure point was determined that was 0.6 logE units less than the point that was 0.15 red density units above red Dmin. The green density (GR) was read at this red exposure point. Interimage is the difference in green density GR—GminR and represents the decrease in green layer development as a function of red exposure. Delta Interimage is the difference in interimage between the sample containing the heterocycle and the check sample without any heterocycle.

[2] = Red-onto-green interimage of multilayer film coatings (Delta Interimage vs check)
Experimental: as §1, §2, §3, §4, §5, §6

[3] = Layer 9 Method A (addendum in dispersion melt, dual melts), vs check without heterocycle, +0.15 green density above Dmin
[4] = Layer 9 Method A + B (single melt-hold, stirred at least 1 h at 40 degrees C), vs check
[5] = Layer 9 Method A + B (single melt-hold), vs check
[6] = Layer 9 Method A, green density difference GR-GminR vs check, more negative = more interimage
[7] = Layer 9 Method B (addendum premixed with emulsion melt, dual melts), vs check

Compound | Speed [1, 3] | Speed [1, 4] | Delta Interimage [2, 5] | Delta Interimage [2, 6] | Speed [1, 7] | Delta Interimage ([2]; Layer 9 Method B, vs check)
CCCCCCCCCCCCC(Oc1ccc(NS(=O)(=O)CCCC)cc1)c1nnc(S)o1 (stereo not drawn) [CH-5, reference compound] | +0.37 stop | −0.43 stop | +0.031 | +0.022 | – | –
CCCCCCCCCCCCCCCc1cccc(OC(CC)C(=O)Nc2nnc(SCCCC)n2C)c1 (stereo not drawn) [AU] | +0.23 stop | +0.20 stop | +0.010 | +0.010 | – | –
CCCCC(Oc1ccc(C(C)(C)CC)cc1C(C)(C)CC)C(=O)Nc1nnc(SCC(C)CCC)s1 (stereo not drawn) [Compound AR] | +0.40 stop | – | – | +0.001 | +0.27 stop | +0.001
CCC(Oc1ccc(C(C)(C)CC)cc1C(C)(C)CC)C(=O)Nc1ccc(CCCc2nnc3n2N=C(C)CC(=O)N3)cc1 (stereo not drawn) [AL] | +0.50 stop | – | – | +0.023 | – | –
CCCCCCSc1nnc(NC(=O)COc2ccc(C(C)(C)CC)cc2)s1 [AE] | +0.20 stop | – | – | −0.010 | – | –
CCCCCCCCC(CCCCCC)CSc1nnc(NC(=O)COc2ccc(C(C)(C)CC)cc2C(C)(C)CC)s1 (stereo not drawn) [S] | +0.48 stop | – | – | +0.016 | +0.30 stop | +0.017
CCCCCCCCCCCCCCCc1cccc(OC(CC)C(=O)Nc2nnc(CCCCC)s2)c1 (stereo not drawn) [Compound A] | +0.42 stop | – | – | +0.018 | – | –
CCCCCCCCCCCCCCCc1cccc(OC(CC)C(=O)Nc2nnc(NC(=O)CCCCC)s2)c1 (stereo not drawn) [AA] | +0.42 stop | – | – | +0.009 | – | –
CCC(Oc1ccc(C(C)(C)CC)cc1C(C)(C)CC)C(=O)Nc1ccc(CCCc2nnc3n2N=C(C)C(C)C(=O)N3)cc1 (stereo not drawn) [Compound AS] | +0.50 stop | – | – | +0.036 | – | –
CCCC(C)CSc1nnc(NC(=O)COc2ccc(C(C)(C)CC)cc2C(C)(C)CC)s1 (stereo not drawn) [P] | +0.48 stop | – | – | +0.022 | +0.27 stop | +0.015
CCSc1nnc(NC(=O)COc2ccc(C(C)(C)CC)cc2C(C)(C)CC)s1 [Compound AP] | +0.27 stop | – | – | −0.007 | – | –
CCCCCCCCCCCCCCCc1cccc(OCC(=O)Nc2nnc([S+]([O-])CC(CC)CC)s2)c1 (stereo not drawn) [I] | +0.33 stop | – | – | +0.015 | – | –
CCCCCCCCCCCCCCCc1cccc(OC(CCCC)C(=O)Nc2nnc(SCC)s2)c1 (stereo not drawn) [AI] | +0.45 stop | – | – | +0.028 | +0.33 stop | +0.028
CCCCCCCCCCCCCCCc1cccc(OCC(=O)Nc2nnc(SCCCC)n2CCCC)c1 [AG] | +0.27 stop | +0.23 stop | +0.005 | +0.003 | – | –
CCCCCCCCCCCCCCCc1cccc(OC(CC)C(=O)Nc2nncs2)c1 (stereo not drawn) [G] | +0.42 stop | – | – | +0.005 | – | –
CCCCCCCCCCCCCCCc1cccc(OC(CC)C(=O)Nc2nnc(S)s2)c1 (stereo not drawn) [CH-4, reference compound] | +0.13 stop | −0.97 stop | +0.020 | +0.015 | – | –

Compound | Speed [1, 3] | Speed [1, 4] | Delta Interimage [2, 5] | Delta Interimage [2, 6] | Speed [1, 7] | Delta Interimage ([2]; Layer 9 Method B, vs check)
CCCCCCCCCCCCCCCc1cccc(OC(CC)C(=O)Nc2nnc(N)s2)c1 (stereo not drawn) [AC] | +0.40 stop | – | – | +0.029 | – | –
CCSc1nnc(NC(=O)COc2ccc(C(C)(C)CC)cc2)s1 [CH-8, reference compound] | +0.03 stop | – | – | −0.001 | – | –
CCCCCCCCC(CCCCCC)CSc1nnc(NC(=O)CCCCC)s1 (stereo not drawn) [Compound B] | +0.45 stop | – | – | −0.003 | +0.23 stop | −0.002
CCSc1nnc(NC(=O)C(CC)Oc2ccc(C(C)(C)C)cc2)s1 (stereo not drawn) [CH-9, reference compound] | +0.06 stop | – | – | +0.018 | – | –
CCCCCCSc1nnc(NC(=O)C(CC)Oc2ccc(C(C)(C)CC)cc2C(C)(C)CC)s1 (stereo not drawn) [AM] | +0.28 stop | – | – | +0.004 | +0.27 stop | +0.008
CCC(=O)Nc1nnc(S(=O)(=O)N(C)CC)s1 [CH-7, reference compound] | +0.06 stop | – | – | +0.005 | – | –
CCCCCCCCCCCCSc1nnc(SCCCCCCCC)s1 [Compound H] | +0.20 stop | – | – | −0.002 | – | –
CCCCCCCCCCCCCCCc1cccc(OCC(=O)Nc2nnc(SCC(CC)CC)s2)c1 [X] | +0.28 stop | – | – | +0.008 | +0.23 stop | +0.008
CCCCC(Oc1ccc(C(C)(C)CC)cc1C(C)(C)CC)c1nnc(S)o1 (stereo not drawn) [CH-6, reference compound] | – | −0.27 stop | +0.016 | – | – | –
CCCCCCCCCCCCCCCc1cccc(OCC(=O)Nc2nnc(S(=O)(=O)CC(CC)CC)s2)c1 [C] | +0.27 stop | – | – | +0.024 | – | –
CCCCCCCCCCCCCCCc1cccc(OC(CC)C(=O)Nc2nnc(OCC)s2)c1 (stereo not drawn) [R] | +0.31 stop | – | – | +0.005 | – | –
CCCCCCCCCCCCCCCc1cccc(OC(CC)C(=O)Nc2nnc(C(C)(C)C)s2)c1 (stereo not drawn) [U] | +0.42 stop | – | – | −0.002 | – | –
CCCCC(Oc1ccc(C(C)(C)CC)cc1)C(=O)Nc1nnc(SCC)s1 (stereo not drawn) [Compound AV] | +0.20 stop | – | – | −0.003 | – | –
CCCCCCCCC(CCCCCC)COc1ncnc2[nH]cnc12 (stereo not drawn) [CH-1, reference compound] | +0.40 stop | −0.60 stop | +0.015 | +0.035 | −0.47 stop | −0.006
CCC(Oc1ccc(C(C)(C)CC)cc1C(C)(C)CC)C(=O)Nc1nnc(S)s1 (stereo not drawn) [CH-3, reference compound] | +0.17 stop | −0.53 stop | +0.015 | +0.017 | – | –
